{"source": "paper PMC11019958", "biological_target": "T1, PDIA6 (ERp5), expressed as bait (UniProt Q15084)", "T1 sequence": "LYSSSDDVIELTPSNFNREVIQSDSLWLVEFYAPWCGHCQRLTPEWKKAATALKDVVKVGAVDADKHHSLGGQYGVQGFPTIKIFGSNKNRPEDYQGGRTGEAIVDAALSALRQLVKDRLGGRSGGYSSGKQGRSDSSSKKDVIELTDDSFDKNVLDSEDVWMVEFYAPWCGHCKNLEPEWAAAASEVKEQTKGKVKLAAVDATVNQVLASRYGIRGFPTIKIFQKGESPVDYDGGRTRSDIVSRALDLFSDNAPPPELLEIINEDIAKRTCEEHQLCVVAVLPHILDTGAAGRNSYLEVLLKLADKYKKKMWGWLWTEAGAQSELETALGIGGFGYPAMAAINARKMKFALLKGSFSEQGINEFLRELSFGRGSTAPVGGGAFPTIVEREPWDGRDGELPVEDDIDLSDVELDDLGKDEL", "test": "co-IP; HEK293T co-transfected with His-tagged ORF3 and Myc-TXNDC5 (WT or AAA) or PDIs; lysates on Dynabeads Protein G pre-bound with anti-Myc mAb; Western blotting", "note": "These are yes or no findings as the source states them, for the method shown. In cells and extracts the contact can be indirect. Binding calls can cover weak binding; strength is not graded here."}
{"substance": "human HEV-3 (Kernow-C1/p6) ORF3 protein only with His tag", "values": [{"measurement": "binding", "value": "binds"}]}
